Measured values: PubChem BioAssay AID493014 (National Center for Advancing Translational Sciences (NCATS), 2011)
The whole screen tested about 340,000 compounds, of which about 170 (0.05%) were called active. Inconclusive means that the source gave no clear call. Such entries were picked first, then a sample of the others. Calls follow the shape of the dose curve; as a rule, active = well fitted inhibition curve with a large enough effect in the signal ratio, with a control signal flat (not every such curve was filed as active); inconclusive = small, poorly fitted or top-dose-only effect, or effect the other way, or a change in a side signal; inactive = flat fitted curve, though single readings scatter; the % refers to the signal ratio. Potencies beside an inconclusive call are fits to weak or partial responses and may not hold up.

assay: qHTS Assay to Find Inhibitors of Chronic Active B-Cell Receptor Signaling; conditions: ABC-DLBCL IkBa-CBG/CBR reporter, luminescence ratio (green luciferase fused to IkBa over red control in TMD8 lymphoma cells), 4 h; activity change, negative = inhibition: at 46.1 µM (top of the series);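 as to activity change, negative = inhibition: plate controls were basal doxycycline-induced cells for no effect and cells given 10 µM MG132 for full effect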
Outline: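 Cell line TMD8 (human ABC DLBCL), stably expressing tet-inducible CBG68-IkBa fusion and CBR; IMDM/0.5% FBS; cpd up to 46 uM; dox induction, 4 h, 37C/5% CO2; dual luminescence; green/red ratio; MG132 control.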
Potency is read from the fitted curve at half-maximal effect.

Q: Which “activity change, negative = inhibition” value does the source give for `COC(=O)c1ccc2c(c1)N(Cc1ccccc1)C(=O)c1ccccc1S2(=O)=O` here?
A: inactive: -0.172%

Q: Which activity change, negative = inhibition does the source give for `COc1ccc(S(=O)(=O)c2cnc3ccccc3n2)cc1` here?
A: inconclusive: -11.4%

Q: For `Cc1ccc(-n2nc3c(N4CCC(C(=O)NCc5cccc(F)c5)CC4)nnc(C)c3c2C)cc1`, which “activity change, negative = inhibition” value is on record?
A: inactive: -11.8%

Q: With `COc1ccc(NCCC(O)c2ccc(Cl)cc2)cc1` (stereo not drawn) as the compound, how does the activity change, negative = inhibition read?
A: inconclusive: -0.283%

Q: With `Cc1cccc(NC(=S)NC(=O)/C=C/c2ccccc2)n1` as the compound, how does the activity change, negative = inhibition read?
A: inconclusive: -6.29%

Q: For `FC(F)(F)c1cc(-c2cccs2)nc(NCc2ccco2)n1`, which activity change, negative = inhibition is on record?
A: inconclusive: 6.33%

Q: Which Potency does the source give for `OC1(c2ccc(Cl)c(Cl)c2)C[n+]2ccccc2N1Cc1ccccc1` (stereo not drawn) here?
A: inconclusive: 7.08 µM [falling, partial curve]

Q: Which activity change, negative = inhibition does the source give for `CCc1noc(C)c1C(=O)Nc1nc2c(F)cc(F)cc2s1` here?
A: inconclusive: 1.6%

Q: With `COc1cc(NC(=O)c2cc(C)no2)cc(OC)c1OC` as the compound, how does the activity change, negative = inhibition read?
A: inconclusive: -0.0037%

Q: With `COC(=O)c1cncc(O)c1` as the compound, how does the activity change, negative = inhibition read?
A: inconclusive: 0.487%

Q: For `CC1(C)CC2CC(C)(CN2CC(O)c2ccccc2)C1` (stereo not drawn), which activity change, negative = inhibition is on record?
A: inconclusive: 5.58%

Q: Which activity change, negative = inhibition does the source give for `COc1ccc(CCNC(=O)c2coc(=O)c(Br)c2)cc1` here?
A: inconclusive: -5.06%

Q: With `CC(=O)c1cccc(NC(=O)NC2CCCCCCC2)c1` as the compound, how does the activity change, negative = inhibition read?
A: inconclusive: 1.27%

Q: For `CN(C)c1ccc(-c2nn3c(-c4ccccc4Cl)nnc3s2)cc1`, which activity change, negative = inhibition is on record?
A: inconclusive: -10.1%

Q: Which Potency does the source give for `CCCCOC(=O)Nc1ccc(N2CCOCC2)cc1` here?
A: inconclusive: 29.1 µM [falling, single point]

Q: Which activity change, negative = inhibition does the source give for `O=C(C[N+]1(CC#Cc2ccccc2)CCCCC1)c1ccc(Cl)cc1` here?
A: inconclusive: -6.23%

Q: With `Nc1ccc(CN2CCOCC2)cc1` as the compound, how does the activity change, negative = inhibition read?
A: inconclusive: 1.19%

Q: With `CC(C)=CCC/C(C)=C/CC(C)(C)CNCCN1CCNCC1` as the compound, how does the activity change, negative = inhibition read?
A: inconclusive: -9.99%

Q: For `CN(C)/C=N/NC(=O)c1ccccc1Cl`, which Potency is on record?
A: inconclusive: 3.98 µM [falling, full curve, poor fit]

Q: With `Cc1cc(N2CCN(c3ccccc3)CC2)n2ncnc2n1` as the compound, how does the activity change, negative = inhibition read?
A: inconclusive: -4.58%

Q: Which activity change, negative = inhibition does the source give for `COCC(=O)N1CCC(Oc2ccc(C(=O)NCc3csc(C(C)C)n3)cc2)CC1` here?
A: inconclusive: -1.78%

Q: For `CC(C)CCNC(=O)c1ccc2c(c1)N(C)C(=O)c1ccccc1S2`, which activity change, negative = inhibition is on record?
A: inconclusive: 1.14%

Q: With `COc1ccc(CCNC(=O)/C=C/c2ccco2)cc1` as the compound, how does the “activity change, negative = inhibition” value read?
A: inactive: -0.598%

Q: For `COc1ccc(-c2cc(C(=O)N/N=C/c3ccc4c(c3)OCO4)c3ccccc3n2)c(OC)c1`, which “activity change, negative = inhibition” value is on record?
A: inactive: 8.37%

Q: For `Cc1cc(C)c2c(=O)[nH]c(SCc3ccccc3)nc2n1`, which Potency is on record?
A: inconclusive: 25.1 µM [rising, partial curve, poor fit]

Q: For `CCC(CC)C1C(C#N)=C(N)Oc2n[nH]c(-c3ccccc3)c21` (stereo not drawn), which activity change, negative = inhibition is on record?
A: inconclusive: -0.484%

Q: With `Nc1nc(N)nc(-c2ccc(Oc3ccccc3)cc2)n1` as the compound, how does the Potency read?
A: inconclusive: 18.4 µM [falling, single point]

Q: Which activity change, negative = inhibition does the source give for `CC(OC(=O)c1c[nH]c2ccccc12)C(=O)N1CCCC1` (stereo not drawn) here?
A: inconclusive: 4.91%

Q: Which activity change, negative = inhibition does the source give for `CC1=C(C(N)=O)C(c2ccc(Cl)cc2Cl)n2ncnc2N1` (stereo not drawn) here?
A: inconclusive: 13.3%

Q: With `CCOC(=O)C1(CCC(C)C)CC(CSc2nc3ccccc3[nH]2)OC1=O` (stereo not drawn) as the compound, how does the “activity change, negative = inhibition” value read?
A: inactive: -17.9%

Q: With `CCOC(=O)c1oc2ccc(S(=O)(=O)n3nc(-c4ccccc4)cc3N)cc2c1C` as the compound, how does the activity change, negative = inhibition read?
A: inconclusive: -8.53%

Q: Which activity change, negative = inhibition does the source give for `Cc1ccc(C(=O)Nc2cccc(C(F)(F)F)c2)cc1NC(=O)c1cnnc2ccccc12` here?
A: inconclusive: -10.5%

Q: For `O=C(COc1coc(CN2CCN(c3ccccc3)CC2)cc1=O)Nc1ccccc1`, which “activity change, negative = inhibition” value is on record?
A: inactive: 0.486%

Q: Which “activity change, negative = inhibition” value does the source give for `CCc1ccc(-c2cc(-c3n[nH]c(=S)n3CC)c3ccccc3n2)cc1` here?
A: inactive: -5.88%

Q: Which activity change, negative = inhibition does the source give for `O=c1cc(N2CCc3ccccc32)[nH]c(=O)n1-c1ccccc1Cl` here?
A: inconclusive: -13.6%

Q: Which “activity change, negative = inhibition” value does the source give for `Cn1ncnc1SCc1cn2cccnc2n1` here?
A: inactive: 0.967%

Q: Which Potency does the source give for `COc1ccc(-n2c3c(cc(C(=O)N4CCN(CCO)CC4)c2=O)C(=O)CC(C)(C)C3)cc1` here?
A: inconclusive: 2.31 µM [falling, full curve]

Q: For `COc1ccccc1C(=O)/C=C/c1ccc(N2CCCCC2)c([N+](=O)[O-])c1`, which activity change, negative = inhibition is on record?
A: inconclusive: 13.9%

Q: Which activity change, negative = inhibition does the source give for `Cc1cnnc2ccc3c(no[n+]3[O-])c12` here?
A: inconclusive: 3.85%

Q: With `Cc1ccc(-c2nnn(CC(=O)N3CCN(c4ccccc4)CC3)n2)o1` as the compound, how does the activity change, negative = inhibition read?
A: inconclusive: -12.3%

Q: With `CCOC(=O)N1CCC(Nc2ncnc3c2cnn3-c2ccc(Cl)cc2)CC1` as the compound, how does the Potency read?
A: inconclusive: 13 µM [rising, partial curve, poor fit]

Q: With `O=C(CNC(=O)C1(c2ccccc2)CC1)Nc1ccc(F)c(F)c1` as the compound, how does the activity change, negative = inhibition read?
A: inconclusive: -2.03%

Q: Which Potency does the source give for `CC1=NN(c2ccccc2)C(=O)/C1=C/N(C)C` here?
A: inconclusive: 6.31 µM [rising, full curve, poor fit]

Q: Which Potency does the source give for `COC(=O)c1cccc(NC(=O)c2ccco2)c1` here?
A: inconclusive: 14.6 µM [falling, partial curve]

Q: With `COc1ccc2nc3cc(Cl)ccc3c(Nc3cc(CN4CCCC4)c(O)c(CN4CCCC4)c3)c2n1` as the compound, how does the Potency read?
A: inconclusive: 20 µM [rising, single point]

Q: With `Nc1ccccc1-c1n[nH]c(=S)s1` as the compound, how does the “activity change, negative = inhibition” value read?
A: inactive: -7.72%

Q: For `CCOC(=O)C1(CCCc2ccccc2)CCN(CC(O)CO)CC1` (stereo not drawn), which Potency is on record?
A: inconclusive: 11.2 µM [falling, partial curve]

Q: With `COc1ccc(CCNC(=O)CSc2nnc3ccc(-c4cccnc4)nn23)cc1` as the compound, how does the activity change, negative = inhibition read?
A: inconclusive: -0.939%

Q: For `Cc1cccc(NC2=C(NC(=O)c3ccccc3)C(=O)c3ccccc3C2=O)c1`, which activity change, negative = inhibition is on record?
A: inconclusive: -6.26%

Q: With `Cn1cnnc1SCC(=O)Nc1cccc(C(=O)O)c1` as the compound, how does the Potency read?
A: inconclusive: 29.1 µM [falling, single point]

Q: For `O=C(NCc1cc([N+](=O)[O-])ccc1O)c1cccc(NS(=O)(=O)c2ccccc2)c1`, which Potency is on record?
A: inconclusive: 11.2 µM [falling, partial curve]

Q: With `O=C(CN1C(=O)COc2ccccc21)N(Cc1cccnc1)Cc1cccc(F)c1` as the compound, how does the activity change, negative = inhibition read?
A: inconclusive: 7.93%

Q: For `CC(C)(C)c1csc(NC(=O)c2c(F)c(F)c(F)c(F)c2F)n1`, which Potency is on record?
A: inconclusive: 31.6 µM [falling, single point]
